PubChem BioAssay AID1259254 | NCATS – 2017

- Assay: 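Gene knock-downs that lead to re-replication, shown by excess G2 DNA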 (primary screen)
- Cell system: human HCT116 colorectal cancer cells
- Reagents: single siRNA against human genes
- Time to read-out: 3 days
- Detection: 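Nuclei stained with Hoechst and imaged; cell-cycle phase assigned by DNA content; G2 share scaled per plate, non-targeting siRNA 0%, GMNN siRNA 100%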
- Reading the numbers: G2 robust z-score: higher = more G2 cells, more excess DNA replication
- Rule for the call: 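An siRNA counts as active if its G2 robust z-score lies at least 5 MADs above the screen median; here such calls match roughly 38% of GMNN control or more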
Shown is an unselected part of about 59,000 deposited reagents. About 1,550 of them (2.6%) count as active. 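G2 share is only a proxy for re-replication; each gene was hit by three separate siRNAs, and active genes were retested.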 Entries without a mark were called inactive. Reagents against one gene are numbered here. Not all columns of the deposit are shown. The record does not give: the amount of reagent.

gene	siRNA no.	G2 robust z-score
AMY2A (GeneID 279)	1	-0.927
AMY2A (GeneID 279)	2	0.138
AMY2A (GeneID 279)	3	1.52
CTDP1 (GeneID 9150)	1	2.97
CTDP1 (GeneID 9150)	2	-1.17
CTDP1 (GeneID 9150)	3	0.24
RPL7P9 (GeneID 653702)	1	4.28
RPL7P9 (GeneID 653702)	2	1.31
RPL7P9 (GeneID 653702)	3	4.78
HBP1 (GeneID 26959)	1	0.47
HBP1 (GeneID 26959)	2	0.139
HBP1 (GeneID 26959)	3	1.47
PCDHB14 (GeneID 56122)	1	0.8
PCDHB14 (GeneID 56122)	2	5.83 (active)
PCDHB14 (GeneID 56122)	3	-0.286
MEIOB (GeneID 254528)	1	-0.702
MEIOB (GeneID 254528)	2	2.76
MEIOB (GeneID 254528)	3	-0.785
ARGLU1 (GeneID 55082)	1	-0.605
ARGLU1 (GeneID 55082)	2	0.0222
ARGLU1 (GeneID 55082)	3	0.988
TRH (GeneID 7200)	1	-0.229
TRH (GeneID 7200)	2	-0.715
TRH (GeneID 7200)	3	-0.634
TNPO2 (GeneID 30000)	1	-0.761
TNPO2 (GeneID 30000)	2	0.388
TNPO2 (GeneID 30000)	3	-0.594
WDR13 (GeneID 64743)	1	-0.345
WDR13 (GeneID 64743)	2	-0.755
WDR13 (GeneID 64743)	3	0.428
COG7 (GeneID 91949)	1	-0.0584
COG7 (GeneID 91949)	2	-0.369
COG7 (GeneID 91949)	3	0.0182
YPEL4 (GeneID 219539)	1	-0.0772
YPEL4 (GeneID 219539)	2	-0.358
YPEL4 (GeneID 219539)	3	-0.951

14 neighbouring reagents already listed, quoted:
gene	siRNA no.	G2 robust z-score
PCDHB14 (GeneID 56122)	3	-0.286
MEIOB (GeneID 254528)	1	-0.702
MEIOB (GeneID 254528)	2	2.76
MEIOB (GeneID 254528)	3	-0.785
ARGLU1 (GeneID 55082)	1	-0.605
ARGLU1 (GeneID 55082)	2	0.0222
ARGLU1 (GeneID 55082)	3	0.988
TRH (GeneID 7200)	1	-0.229
TRH (GeneID 7200)	2	-0.715
TRH (GeneID 7200)	3	-0.634
TNPO2 (GeneID 30000)	1	-0.761
TNPO2 (GeneID 30000)	2	0.388
TNPO2 (GeneID 30000)	3	-0.594
WDR13 (GeneID 64743)	1	-0.345

Additional entries follow:
gene	siRNA no.	G2 robust z-score
LINC01822 (GeneID 645949)	1	-0.672
LINC01822 (GeneID 645949)	2	0.75
LINC01822 (GeneID 645949)	3	-0.749
ASB8 (GeneID 140461)	1	0.399
ASB8 (GeneID 140461)	2	-0.0663
ASB8 (GeneID 140461)	3	-0.237
NAALAD2 (GeneID 10003)	1	0.87
NAALAD2 (GeneID 10003)	2	-1.24
NAALAD2 (GeneID 10003)	3	0.948
CHCT1 (GeneID 124773)	1	-0.323
CHCT1 (GeneID 124773)	2	-0.219
CHCT1 (GeneID 124773)	3	1.87
CSAD (GeneID 51380)	1	-0.829
CSAD (GeneID 51380)	2	-1.4
CSAD (GeneID 51380)	3	2.69
LAMB1 (GeneID 3912)	1	0.521
LAMB1 (GeneID 3912)	2	0.482
LAMB1 (GeneID 3912)	3	1.53
UQCRH (GeneID 7388)	1	-0.393
UQCRH (GeneID 7388)	2	-0.639
UQCRH (GeneID 7388)	3	0.289
STIMATE (GeneID 375346)	1	-1.17
STIMATE (GeneID 375346)	2	0.777
STIMATE (GeneID 375346)	3	0.329
ARFGAP3 (GeneID 26286)	1	0.872
ARFGAP3 (GeneID 26286)	2	0.245
ARFGAP3 (GeneID 26286)	3	-0.194
AHCYL1 (GeneID 10768)	1	-1.19
AHCYL1 (GeneID 10768)	2	-1.39
AHCYL1 (GeneID 10768)	3	-0.734
RPL38 (GeneID 6169)	1	3.08
RPL38 (GeneID 6169)	2	5.22 (active)
RPL38 (GeneID 6169)	3	1.7
TOX2 (GeneID 84969)	1	-0.764
TOX2 (GeneID 84969)	2	-0.493
TOX2 (GeneID 84969)	3	-0.34
PLXNC1 (GeneID 10154)	1	0.173
PLXNC1 (GeneID 10154)	2	-0.288
PLXNC1 (GeneID 10154)	3	-0.503
OR52R1 (GeneID 119695)	1	-0.789
OR52R1 (GeneID 119695)	2	0.343
OR52R1 (GeneID 119695)	3	2.21
DBI (GeneID 1622)	1	-0.806
DBI (GeneID 1622)	2	0.818
DBI (GeneID 1622)	3	0.822
TXNIP (GeneID 10628)	1	1.47
TXNIP (GeneID 10628)	2	1.61
TXNIP (GeneID 10628)	3	-0.643
MUC3B (GeneID 57876)	1	1.71
MUC3B (GeneID 57876)	2	0.43
MUC3B (GeneID 57876)	3	-0.387
MUC3B (GeneID 57876)	4	-0.327
MUC3B (GeneID 57876)	5	0.549
MUC3B (GeneID 57876)	6	0.0992
